Measurements from patent US8299102B2, “Heteroarylcyclopropanecarboxamides and their use as pharmaceuticals” (Sanofi, priority 2006, dated 2012).
Some results were stated once for a whole list of compounds, not compound by compound. At least one compound was matched to its structure with a doubt left.

Target: eNOS promoter
Assay: Activation of eNOS transcription (eNOS promoter firefly luciferase reporter gene assay)
Type: cell-based
Settings: human endothelial cell line stably transfected with eNOS promoter-luciferase construct; 18 h incubation; determined graphically; read-out: EC50 values of transcription induction ratios (TIR)
Description: Activation of eNOS transcription was measured as described in detail by Li et al., “Activation of protein kinase C alpha and/or epsilon enhances transcription of the human endothelial nitric oxide synthase gene”, Mol. Pharmacol. 53 (1998) 630. Briefly, a 3.5 kB long fragment 5′ of the starting codon of the eNOS gene was cloned, sequenced and cloned in firefly luciferase expression plasmids to monitor activation of the eNOS promoter by reporter gene activity. A human endothelial cell line stable transfected and expressing this promoter-reporter construct was used for compound testing. Cells were incubated for 18 h with the compounds.
All compounds were dissolved in sterile dimethyl sulfoxide (DMSO). A final concentration of 0.5% DMSO in complete medium was allowed. Induction of reporter gene expression in these cells was measured using a standard luciferase assay system (Promega, Cat. No. E150) according to the manufacturer's instructions. Luciferase induction in cells incubated with compounds were compared to those incubated with solvent alone. The ratio of both activities (transcription induction ratio, TIR) was plotted as a function of compound concentration. […] EC50 values of transcription induction ratios as a function of compound concentration were determined graphically.

O=C(NCCF)[C@@H]1C[C@H]1c1ccc(-c2ccc(F)cc2)nc1 (single isomer, unassigned) [Example 58, (1R,2R)-2-[6-(4-Fluoro-phenyl)-pyridin-3-yl]-cyclopropanecarboxylic acid (2-fluoro-ethyl)-amide or (1S,2S)-2-[6-(4-fluoro-phenyl)-pyridin-3-yl]-cyclopropanecarboxylic acid (2-fluoro-ethyl)-amide]
EC50: < 0.5 µM
